No constants are given. Whether binding was seen depends on the method and setting. Binding seen in cells or lysates may run through a third protein. A yes stands for co-enrichment or nearness to the bait. Other partners may have been found.
Biological target: MdRNL2 (apple (Malus x domestica))
Assay: affinity purification with mass spectrometry; semi-in vivo pull-down with MdRNL2 as bait, LC-MS of what was pulled down; proteins pulled down with an empty vector set aside

B1: MdPR10-2 (protein, UniProt Q40280 1-159)
chain: MGVYTFENEYTSEIPPPRLFKAFVLDADNLIPKIAPQAIKHAEILEGDGGPGTIKKITFGEGSQYGYVKHKIDSVDEANYSYAYTLIEGDALTDTIEKVSYETKLVASGSGSIIKSISHYHTKGDVEIKEEHVKAGKEKAHGLFKLIESYLKGHPDAYN
binding: binds
